Measured values reported in patent US20100233172A1, “METHODS OF INHIBITING QUIESCENT TUMOR PROLIFERATION” (Bristol-Myers Squibb Company, priority 2008, published 2010).

Tested on: Tubulin (several forms)
Test: Affinity capture on monomeric avidin, ALL cell fractions, MS peptide hits
Format: binding

N#Cc1ccc2c(c1)CN(S(=O)(=O)CCCNC(=O)CCCCCNC(=O)CCCC[C@H]1SC[C@H]3NC(=O)N[C@H]31)CCN2Cc1cnc[nH]1 [BMS-236724]
Peptide Hits Exp 1: 10 | Peptide Hits Exp 2: 1
